According to article PMC11199874:
No constants are given. Whether binding was seen depends on the method and setting. In cells and extracts the contact can be indirect. Some entries that bind do so weakly or less than the wild type. For some assays here: Sequences can lack the tags named with a protein.

Protein sequences, listed by entry. Tags and fused reporters are not part of them.
UniProt Q12774: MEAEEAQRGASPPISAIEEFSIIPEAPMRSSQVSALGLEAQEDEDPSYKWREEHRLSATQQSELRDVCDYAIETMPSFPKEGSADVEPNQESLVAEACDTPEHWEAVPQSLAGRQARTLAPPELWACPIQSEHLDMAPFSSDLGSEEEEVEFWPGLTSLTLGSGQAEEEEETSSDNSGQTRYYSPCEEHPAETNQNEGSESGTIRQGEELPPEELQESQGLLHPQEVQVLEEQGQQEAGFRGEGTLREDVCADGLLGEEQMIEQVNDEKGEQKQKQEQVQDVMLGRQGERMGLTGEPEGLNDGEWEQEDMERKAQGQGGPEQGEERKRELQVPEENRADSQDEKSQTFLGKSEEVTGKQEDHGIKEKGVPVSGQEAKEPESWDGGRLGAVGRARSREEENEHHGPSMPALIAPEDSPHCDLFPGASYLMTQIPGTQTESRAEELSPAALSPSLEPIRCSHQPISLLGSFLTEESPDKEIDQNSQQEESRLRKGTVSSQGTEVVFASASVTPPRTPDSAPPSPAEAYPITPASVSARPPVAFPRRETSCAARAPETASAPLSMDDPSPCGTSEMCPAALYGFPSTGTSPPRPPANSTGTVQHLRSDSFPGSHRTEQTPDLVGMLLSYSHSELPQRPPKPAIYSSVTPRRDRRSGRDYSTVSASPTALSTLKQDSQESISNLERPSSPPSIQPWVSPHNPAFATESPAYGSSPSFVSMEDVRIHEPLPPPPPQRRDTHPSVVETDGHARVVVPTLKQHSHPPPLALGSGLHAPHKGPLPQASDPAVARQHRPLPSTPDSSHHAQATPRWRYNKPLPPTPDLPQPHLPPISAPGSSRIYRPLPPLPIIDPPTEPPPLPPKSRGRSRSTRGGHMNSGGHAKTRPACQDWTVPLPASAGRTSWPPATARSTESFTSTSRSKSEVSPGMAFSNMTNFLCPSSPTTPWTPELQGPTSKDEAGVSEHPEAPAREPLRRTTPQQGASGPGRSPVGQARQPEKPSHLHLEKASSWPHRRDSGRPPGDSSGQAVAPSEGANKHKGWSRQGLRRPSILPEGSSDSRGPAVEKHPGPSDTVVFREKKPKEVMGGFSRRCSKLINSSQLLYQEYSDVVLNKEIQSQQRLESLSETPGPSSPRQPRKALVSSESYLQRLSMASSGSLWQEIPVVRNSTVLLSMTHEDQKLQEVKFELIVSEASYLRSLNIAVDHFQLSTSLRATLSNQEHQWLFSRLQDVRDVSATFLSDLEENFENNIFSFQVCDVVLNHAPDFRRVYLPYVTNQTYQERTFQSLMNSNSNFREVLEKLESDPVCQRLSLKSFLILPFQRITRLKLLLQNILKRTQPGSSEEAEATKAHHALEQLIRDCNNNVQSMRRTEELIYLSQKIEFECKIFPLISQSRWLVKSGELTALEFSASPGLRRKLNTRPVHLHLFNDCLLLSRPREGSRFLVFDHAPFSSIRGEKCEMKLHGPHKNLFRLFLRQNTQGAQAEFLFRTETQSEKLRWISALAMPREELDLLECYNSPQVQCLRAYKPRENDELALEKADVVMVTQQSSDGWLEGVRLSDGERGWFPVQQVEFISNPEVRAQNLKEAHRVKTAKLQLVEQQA

Experiments:
[1] = target: T1, GST-Drebrin E (UniProt Q16643); test: pull-down; HEK293T cells co-transfected with one GST-tagged and one HA-tagged construct; lysate on glutathione sepharose beads, 4°C, 6 h to overnight; 20 mM Tris pH 7.4, 150 mM NaCl, 1% NP-40; immunoblot with anti-HA and anti-GST
T1 sequence: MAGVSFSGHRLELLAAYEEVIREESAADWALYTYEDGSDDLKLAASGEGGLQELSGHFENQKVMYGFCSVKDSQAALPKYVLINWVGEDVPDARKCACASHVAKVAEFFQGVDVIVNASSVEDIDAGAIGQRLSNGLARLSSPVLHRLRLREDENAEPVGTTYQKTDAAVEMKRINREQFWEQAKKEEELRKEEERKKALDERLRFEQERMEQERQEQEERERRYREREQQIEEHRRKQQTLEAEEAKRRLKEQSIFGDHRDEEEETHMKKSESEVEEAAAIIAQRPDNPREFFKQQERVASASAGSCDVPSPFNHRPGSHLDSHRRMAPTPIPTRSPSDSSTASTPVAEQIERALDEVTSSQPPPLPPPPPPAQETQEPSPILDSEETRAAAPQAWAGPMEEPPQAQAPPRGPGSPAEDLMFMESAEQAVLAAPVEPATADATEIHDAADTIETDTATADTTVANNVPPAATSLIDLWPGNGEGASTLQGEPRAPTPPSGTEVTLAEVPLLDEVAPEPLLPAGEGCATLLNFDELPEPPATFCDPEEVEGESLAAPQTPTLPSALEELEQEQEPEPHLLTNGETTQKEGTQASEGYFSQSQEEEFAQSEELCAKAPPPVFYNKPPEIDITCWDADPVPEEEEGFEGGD

[2] = target: GST-ARHGEF5 expressed in HEK293T cells (not stated (human or rodent cDNA cloned)) (UniProt Q12774); test: pull-down; HEK293T cells transfected with GST-ARHGEF5, HA-Drebrin E and HA-Cdk5 together; lysate on glutathione sepharose beads; immunoblot with anti-GST and anti-HA

## HA-ARHGEF5 (from UniProt Q12774 1-1597)
[1]
  binding: binds

## HA-Cdk5 (Cyclin-dependent kinase 5) (from UniProt Q00535 1-292) (enzyme)
[2]
  binding: binds
